In article PMC11685124:
The exact form of at least one protein or probe is not confirmed. For part of these data: No signal at the amounts used counts as a negative.

Assays:
[1] = tested on: MBP-RrMYB12 (Rosa rugosa cv. Zizhi); test: competition with a labelled probe; details: EMSA (Beyotime Chemiluminescent kit): 2 µl of 1 mg/ml protein, biotin probe 10 µM, binding buffer, recombinant protein, protein details: N-terminal MBP (pMAL-c2X)
[2] = tested on: MBP-RrMYB111 (Rosa rugosa cv. Zizhi); test: competition with a labelled probe; details: EMSA (Beyotime Chemiluminescent kit): 2 µl of 1 mg/ml protein, biotin probe 10 µM, binding buffer, recombinant protein, protein details: N-terminal MBP (pMAL-c2X)
[3] = tested on: MBP-RrMYB12 (Rosa rugosa cv. Zizhi); test: EMSA; details: EMSA (Beyotime Chemiluminescent kit): 2 µl of 1 mg/ml protein, biotin probe 10 µM; binding buffer; recombinant protein; protein details: N-terminal MBP (pMAL-c2X); label: 5' biotin
[4] = tested on: MBP-RrMYB111 (Rosa rugosa cv. Zizhi); test: EMSA; details: EMSA (Beyotime Chemiluminescent kit): 2 µl of 1 mg/ml protein, biotin probe 10 µM; binding buffer; recombinant protein; protein details: N-terminal MBP (pMAL-c2X); label: 5' biotin
[5] = mutant competitor vs biotin probe
[6] = excess cold probe vs biotin probe

“TCTAACAAAAATATCGTGTATTAAAAAAAGATTTTAATAAAAGATTTAGC (double strand) [RrFLS promoter mutant (no-competitive) probe]”: no binding [1, 5]; no binding [2, 5].

“TCTAACAAAAATATCGTGTATTTAACTGAGATTTTAATAAAAGATTTAGC (double strand) [RrFLS promoter competitive probe (unlabeled)]”: binds [1, 6]; binds [2, 6].

“TCTAACAAAAATATCGTGTATTTAACTGAGATTTTAATAAAAGATTTAGC (double strand) [RrFLS promoter probe (biotin)]”: binds [3]; binds [4].
